From paper PMC3009601, “Structural Basis for Apoptosis Inhibition by Epstein-Barr Virus BHRF1” (PLoS Pathogens, 2010)
No constants are given. Whether binding was seen depends on the method and setting.

Molecular target: BHRF1ΔC31 (Epstein-Barr virus) (UniProt P03182)
Assay: ITC; VP-ITC (MicroCal), recombinant BHRF1ΔC31 with BH3 domain peptides; Kd values are the means of 3 experiments ± SD; both purified

Binder	binding
DGGTMENLSRRLKVTGDLFDIMSGQT [mmBeclin BH3 peptide (residues 103-128)]	no binding
PGGTTQEVGQLLQDMGDDVYQQYRSL [mouse Mule BH3 peptide (residues 1969-1994)]	no binding
